For experiment [1], the target named is T1, Taspase1^T234V-GFP, catalytic inactive Taspase1 variant (human) (UniProt Q9H6P5).
T1 sequence: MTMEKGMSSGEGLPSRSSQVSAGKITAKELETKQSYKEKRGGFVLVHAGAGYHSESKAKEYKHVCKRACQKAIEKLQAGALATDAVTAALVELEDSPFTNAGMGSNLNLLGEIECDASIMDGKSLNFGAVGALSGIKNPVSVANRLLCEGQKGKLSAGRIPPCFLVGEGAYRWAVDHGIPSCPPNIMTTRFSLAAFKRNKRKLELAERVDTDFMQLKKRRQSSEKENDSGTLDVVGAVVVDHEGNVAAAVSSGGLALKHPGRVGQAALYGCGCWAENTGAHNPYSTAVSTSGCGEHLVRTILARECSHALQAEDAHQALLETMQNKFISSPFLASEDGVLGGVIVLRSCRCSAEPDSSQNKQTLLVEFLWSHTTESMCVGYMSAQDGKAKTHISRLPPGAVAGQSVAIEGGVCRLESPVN
Description: co-IP; GFP fusion proteins precipitated with µMACS anti-GFP MicroBeads from whole cell lysates of transfected HEK 293T cells; low-salt lysis buffer (50 mM Tris pH 8.0, 150 mM NaCl, 5 mM EDTA, 0.5% NP-40); eluates analysed by immunoblot.

By UniProt entry, the sequences of proteins in these tests, tags left out.
UniProt P11388: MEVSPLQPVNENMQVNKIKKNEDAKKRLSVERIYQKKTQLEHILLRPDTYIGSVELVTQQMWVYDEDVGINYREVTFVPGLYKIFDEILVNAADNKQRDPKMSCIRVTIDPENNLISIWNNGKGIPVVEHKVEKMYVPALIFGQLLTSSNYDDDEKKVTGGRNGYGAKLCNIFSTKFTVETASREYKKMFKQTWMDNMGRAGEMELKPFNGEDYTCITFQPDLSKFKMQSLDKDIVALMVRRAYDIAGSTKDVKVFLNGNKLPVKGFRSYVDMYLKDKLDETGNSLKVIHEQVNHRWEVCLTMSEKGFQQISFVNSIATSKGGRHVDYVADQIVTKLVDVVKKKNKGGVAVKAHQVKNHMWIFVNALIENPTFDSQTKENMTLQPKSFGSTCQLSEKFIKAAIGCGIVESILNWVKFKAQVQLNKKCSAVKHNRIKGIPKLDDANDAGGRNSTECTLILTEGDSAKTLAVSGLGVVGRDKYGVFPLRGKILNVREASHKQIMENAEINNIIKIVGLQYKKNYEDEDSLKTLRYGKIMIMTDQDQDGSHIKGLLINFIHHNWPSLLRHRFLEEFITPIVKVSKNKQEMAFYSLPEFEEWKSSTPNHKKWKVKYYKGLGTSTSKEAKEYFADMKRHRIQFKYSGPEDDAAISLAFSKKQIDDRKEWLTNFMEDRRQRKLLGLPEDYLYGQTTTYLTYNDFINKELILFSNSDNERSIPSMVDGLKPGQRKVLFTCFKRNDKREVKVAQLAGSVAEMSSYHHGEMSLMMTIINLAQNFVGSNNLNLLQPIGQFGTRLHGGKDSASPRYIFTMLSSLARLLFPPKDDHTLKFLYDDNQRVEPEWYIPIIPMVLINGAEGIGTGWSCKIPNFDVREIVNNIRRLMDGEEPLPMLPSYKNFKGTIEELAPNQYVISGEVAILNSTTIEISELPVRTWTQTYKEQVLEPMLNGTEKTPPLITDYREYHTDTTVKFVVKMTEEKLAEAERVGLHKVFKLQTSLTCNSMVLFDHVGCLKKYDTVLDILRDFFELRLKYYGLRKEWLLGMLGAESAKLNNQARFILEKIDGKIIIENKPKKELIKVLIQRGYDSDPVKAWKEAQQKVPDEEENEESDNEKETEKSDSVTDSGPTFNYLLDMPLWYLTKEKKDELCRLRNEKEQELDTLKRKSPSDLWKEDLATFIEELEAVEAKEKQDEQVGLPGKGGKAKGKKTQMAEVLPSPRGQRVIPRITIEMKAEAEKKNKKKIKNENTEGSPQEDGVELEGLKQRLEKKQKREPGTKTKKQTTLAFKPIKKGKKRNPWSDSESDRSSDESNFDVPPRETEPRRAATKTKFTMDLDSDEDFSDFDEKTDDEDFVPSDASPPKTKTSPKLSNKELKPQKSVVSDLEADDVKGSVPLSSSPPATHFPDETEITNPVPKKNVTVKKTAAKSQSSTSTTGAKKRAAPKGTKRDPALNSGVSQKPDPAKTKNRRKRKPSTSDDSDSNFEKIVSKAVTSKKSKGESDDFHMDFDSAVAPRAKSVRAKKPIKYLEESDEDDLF
UniProt Q02880: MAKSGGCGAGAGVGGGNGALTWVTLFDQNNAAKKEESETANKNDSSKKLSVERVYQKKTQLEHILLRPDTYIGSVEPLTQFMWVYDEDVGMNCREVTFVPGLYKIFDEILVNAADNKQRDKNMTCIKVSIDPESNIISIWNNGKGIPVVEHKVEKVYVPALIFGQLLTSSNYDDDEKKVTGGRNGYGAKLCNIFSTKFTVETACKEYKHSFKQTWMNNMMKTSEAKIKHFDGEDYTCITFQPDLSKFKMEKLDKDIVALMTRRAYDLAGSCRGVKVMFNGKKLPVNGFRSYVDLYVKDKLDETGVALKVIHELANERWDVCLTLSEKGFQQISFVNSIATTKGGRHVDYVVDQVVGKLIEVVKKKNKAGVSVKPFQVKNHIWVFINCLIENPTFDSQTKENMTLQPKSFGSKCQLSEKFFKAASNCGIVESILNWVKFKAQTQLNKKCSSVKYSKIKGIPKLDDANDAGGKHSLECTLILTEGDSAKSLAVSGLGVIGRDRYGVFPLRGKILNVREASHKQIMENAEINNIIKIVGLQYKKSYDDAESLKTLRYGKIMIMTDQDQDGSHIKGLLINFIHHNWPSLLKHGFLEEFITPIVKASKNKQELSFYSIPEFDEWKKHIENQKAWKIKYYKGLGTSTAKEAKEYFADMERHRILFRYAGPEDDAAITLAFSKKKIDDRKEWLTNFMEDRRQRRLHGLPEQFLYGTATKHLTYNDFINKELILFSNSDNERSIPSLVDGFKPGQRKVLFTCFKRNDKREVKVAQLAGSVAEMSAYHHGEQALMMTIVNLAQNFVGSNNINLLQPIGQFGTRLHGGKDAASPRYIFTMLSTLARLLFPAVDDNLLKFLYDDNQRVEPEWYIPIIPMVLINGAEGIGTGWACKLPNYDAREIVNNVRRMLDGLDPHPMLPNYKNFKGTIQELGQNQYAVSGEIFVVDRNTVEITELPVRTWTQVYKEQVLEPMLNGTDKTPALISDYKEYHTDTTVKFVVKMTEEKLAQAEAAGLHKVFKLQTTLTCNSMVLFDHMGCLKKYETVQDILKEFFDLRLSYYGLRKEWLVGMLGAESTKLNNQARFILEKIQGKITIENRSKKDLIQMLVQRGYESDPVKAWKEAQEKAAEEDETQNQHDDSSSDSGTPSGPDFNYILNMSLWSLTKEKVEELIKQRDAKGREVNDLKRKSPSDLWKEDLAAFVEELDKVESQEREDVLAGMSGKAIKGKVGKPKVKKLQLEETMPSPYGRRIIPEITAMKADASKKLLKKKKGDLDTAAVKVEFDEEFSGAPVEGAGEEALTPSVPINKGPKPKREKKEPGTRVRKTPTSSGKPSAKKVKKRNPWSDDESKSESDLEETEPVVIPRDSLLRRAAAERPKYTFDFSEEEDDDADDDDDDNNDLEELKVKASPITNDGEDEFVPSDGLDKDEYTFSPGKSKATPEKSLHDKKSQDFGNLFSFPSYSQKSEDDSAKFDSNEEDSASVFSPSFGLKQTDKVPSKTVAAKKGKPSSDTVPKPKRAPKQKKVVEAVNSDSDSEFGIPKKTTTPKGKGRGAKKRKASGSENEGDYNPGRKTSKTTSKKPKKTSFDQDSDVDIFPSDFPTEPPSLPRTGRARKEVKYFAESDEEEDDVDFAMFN
UniProt P06748: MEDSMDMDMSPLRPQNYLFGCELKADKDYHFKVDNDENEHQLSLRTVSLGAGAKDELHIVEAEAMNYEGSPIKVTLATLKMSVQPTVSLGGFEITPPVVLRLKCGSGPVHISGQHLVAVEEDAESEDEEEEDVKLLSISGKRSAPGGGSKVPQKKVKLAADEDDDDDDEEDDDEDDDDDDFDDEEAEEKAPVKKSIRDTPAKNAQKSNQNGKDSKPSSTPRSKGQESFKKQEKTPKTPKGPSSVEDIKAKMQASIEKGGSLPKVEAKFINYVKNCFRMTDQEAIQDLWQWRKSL

For experiment [2], the target named is T2, wild type (WT) Taspase1-GFP (human) (UniProt Q9H6P5).
T2 sequence: T1 sequence with V234T
Described as above.

Experiment [3] concerns the target T2, wild type (WT) Taspase1-GFP (human). The experiment is described as follows: co-IP; Taspase1-GFP precipitated with anti-GFP MicroBeads from chromatin fractions of transfected HEK 293T cells treated with 50 nM E2 or DMSO for 1 h; immunoblot.
Experiment [4] concerns the target Topo IIα-GFP (GFP-tagged Topoisomerase IIα) (UniProt P11388). Description: co-IP; GFP fusion proteins precipitated with µMACS anti-GFP MicroBeads from whole cell lysates of transfected HEK 293T cells; low-salt lysis buffer (50 mM Tris pH 8.0, 150 mM NaCl, 5 mM EDTA, 0.5% NP-40); eluates analysed by immunoblot. For orientation: In western blotting, separated proteins are transferred to a membrane and probed.

Experiment [5] addresses Topo IIβ-GFP (GFP-tagged Topoisomerase IIβ) (UniProt Q02880). The description is as above.

Numbering of substitutions follows the chain as printed. No constants are given. Whether binding was seen depends on the method and setting. Binding seen in cells or lysates may run through a third protein. Some entries that bind do so weakly or less than the wild type. Tags and fused reporters may be left off the sequences shown.

As to “Nucleophosmin1 (NPM1) (from UniProt P06748 1-294)”, the binding entry in experiment [1] and in experiment [2] was “binds” each time. As to “MLL1 (mixed lineage or myeloid/lymphoid leukemia) protein (from UniProt Q03164 1-3969) (enzyme)”, the binding entry in experiment [3] is “binds”.

B1: wild-type Taspase1-HA (enzyme, UniProt Q9H6P5 1-420)
chain: T1 sequence with V234T
In the case of B1, the binding result in experiment [4] and in experiment [5] was “binds” in each case.

The values are drawn from paper PMC9913075.
